# Laboratory results: publication PMC7819943, “Rice protein-binding microarrays: a tool to detect cis-acting elements near promoter regions in rice”
# The other results are listed elsewhere or left out.
# Target: T1, OsSMF1 (Oryza sativa, UniProt Q6ZLB0 1-436)
# T1 sequence: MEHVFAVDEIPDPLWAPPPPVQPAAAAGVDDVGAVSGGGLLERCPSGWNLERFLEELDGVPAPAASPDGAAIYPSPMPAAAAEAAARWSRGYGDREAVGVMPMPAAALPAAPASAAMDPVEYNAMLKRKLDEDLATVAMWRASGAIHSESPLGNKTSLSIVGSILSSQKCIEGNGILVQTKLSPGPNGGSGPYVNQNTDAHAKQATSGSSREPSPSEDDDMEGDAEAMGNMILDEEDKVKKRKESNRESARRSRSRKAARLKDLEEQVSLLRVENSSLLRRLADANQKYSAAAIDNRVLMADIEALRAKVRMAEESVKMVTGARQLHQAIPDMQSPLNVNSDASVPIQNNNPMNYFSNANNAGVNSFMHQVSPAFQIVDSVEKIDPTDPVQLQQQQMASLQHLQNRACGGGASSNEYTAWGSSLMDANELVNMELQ
# Experiment: protein-binding microarray (RPBM); PBS, 2% BSA, 51.3 ng/ul salmon testes DNA, 50 uM zinc acetate, 200 nM TF, 25 C, 1 h; high values mean tight binding
# Conditions: protein: recombinant; tags: N-terminal polyhistidine and DsRed monomer fusion (pET32a); chain copies: 2; label: CyDye5-dUTP incorporated in the synthesized complementary strand; 3' TTTTT single-stranded linker to array surface; dsDNA, one strand shown
# Summary of the method: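 The binding signal is fluorescence intensity per array feature (arbitrary units). Readings came from an Axon 4000B scanner after a washed, 2% BSA-blocked, double-stranded custom Agilent array had been incubated for 1 h at 25 °C with 200 nM protein and 50 µM zinc acetate. The protein was a Ni–NTA-purified transcription factor fused N-terminally to polyhistidine and DsRed, expressed in E. coli BL21-CodonPlus.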
row,Sequence,binding signal
1,CAAAATTCTTCTCCTTCCTACGGCCTACGGGTGAAAAGGGCGGAGTCACCTAGTGCAG,18500 fluorescence intensity (a.u.)
2,GTTCCTGGTTTGTGTGACACGTGGGAGAGGGGAATAGTACCGGAGTCACCTAGTGCAG,4900 fluorescence intensity (a.u.)
3,CAGTTTTGTGACCGAATTATGATGCAAAATTTCCACAGGGCGGAGTCACCTAGTGCAG,3910 fluorescence intensity (a.u.)
4,CACGTCGCGCCCATGCACGGTGACACCACGCCACGCCACCCGGAGTCACCTAGTGCAG,8040 fluorescence intensity (a.u.)
5,GCCGTGGCGATGCCTGCGTTGGATCTCTACCTTCGCCTCCCGGAGTCACCTAGTGCAG,32800 fluorescence intensity (a.u.)
6,CCAAGTGTCCGCCGCCGCGTCGTGTCGCGTCGCGTCGCTCCGGAGTCACCTAGTGCAG,3610 fluorescence intensity (a.u.)
7,GGCTCTAGGTCCGCCCATGTTGTGAACTGATGTATCACACCGGAGTCACCTAGTGCAG,3350 fluorescence intensity (a.u.)
8,TTCCCTAAAAGAAATCCATTTGTGGATTGAATCAGCTCAGCGGAGTCACCTAGTGCAG,3460 fluorescence intensity (a.u.)
9,ACACCAACTGTCGTAACGGTCAAAGCACCAACGTACGTCACGGAGTCACCTAGTGCAG,3640 fluorescence intensity (a.u.)
10,AGAAAACCTACACCCCGGGCTTCCGTTGCAACGTGACAACCGGAGTCACCTAGTGCAG,13300 fluorescence intensity (a.u.)
11,GGAGAGCACGCTGATGGTGCTGACTCAAAGGATGAAAGAGCGGAGTCACCTAGTGCAG,4640 fluorescence intensity (a.u.)
12,TTCTCGAGGACTATGAAGACCAAGGAGTCATGAGTAGTGACGGAGTCACCTAGTGCAG,3200 fluorescence intensity (a.u.)
13,TTCCCGGTCTCTTATTATCCATATCATAAGTAAATTAGTTCGGAGTCACCTAGTGCAG,7670 fluorescence intensity (a.u.)
14,CACTATATCAATGACACGTGGGTCTACATGTGTCTATGACCGGAGTCACCTAGTGCAG,7680 fluorescence intensity (a.u.)
15,TGACGAATCTACGGATACGCGACGTGTCACGTGTGCGGCACGGAGTCACCTAGTGCAG,6230 fluorescence intensity (a.u.)
16,CCGGTTCGAACCCCGTGCCGCGTCGGAAGCTTCTGGATCCCGGAGTCACCTAGTGCAG,3240 fluorescence intensity (a.u.)
17,CCGTCCGCGCGTCGTCAAATCACACCCTGCAGCGCCGCCTCGGAGTCACCTAGTGCAG,3270 fluorescence intensity (a.u.)
18,TAATCCCTCCTGTTTGGGACTCTAGGGACTTAAAGTGACTCGGAGTCACCTAGTGCAG,38100 fluorescence intensity (a.u.)
19,CCCGCTGTTCTCTCTCATCTTTTATCTCATTAAAATATGTCGGAGTCACCTAGTGCAG,4450 fluorescence intensity (a.u.)
20,CCATTCTAGACGATGTGGCACCTTATTTGTACGATTTCCGCGGAGTCACCTAGTGCAG,5170 fluorescence intensity (a.u.)
21,AGCGTTCATCAGGACACGTGTACGGTGGAGGTTAATCAGGCGGAGTCACCTAGTGCAG,9840 fluorescence intensity (a.u.)

row,Sequence,binding signal
1,CTGCTGTCTTGCTGATCACACCTTTCCTCGTCGTGGCCGTCGGAGTCACCTAGTGCAG,3150 fluorescence intensity (a.u.)
2,AACACGGCCGCCCTCGCCACGTCTTCCACCTCCAGCGATGCGGAGTCACCTAGTGCAG,6200 fluorescence intensity (a.u.)
3,GGTTTTAATGGGTAGAAGATCTTGACGCATCCTAGTCCACCGGAGTCACCTAGTGCAG,3290 fluorescence intensity (a.u.)
4,CACGGTCAGAGATAAATTTTGGGATTTTGTTTGATGCCAGCGGAGTCACCTAGTGCAG,3230 fluorescence intensity (a.u.)
5,AGGAGAAACACGTCAGCTACAGTGTTGAGCTAGATGAGTGCGGAGTCACCTAGTGCAG,13600 fluorescence intensity (a.u.)
6,ATTCCTTGCCTCCCCACGACGCGTTTCTTCGTGAGCTGTACGGAGTCACCTAGTGCAG,3770 fluorescence intensity (a.u.)
7,AACAAAAGTTGTTTTGACTCACGCGGTGGCTGTTGTCTGTCGGAGTCACCTAGTGCAG,6340 fluorescence intensity (a.u.)
8,ATAATCTCACCCAAAATACACGCAATCTCACGCCATTTGCCGGAGTCACCTAGTGCAG,3310 fluorescence intensity (a.u.)
9,CCCACGGACACCGCGCGCCCCACATAACCCCATGACCCGGCGGAGTCACCTAGTGCAG,3160 fluorescence intensity (a.u.)
10,GCGTGCGCGCTACTTATTACTGAGCTGGCGCGCCTAGGCACGGAGTCACCTAGTGCAG,3950 fluorescence intensity (a.u.)
11,GACGCGCGGTGGGCGCACATCGTGTACGCGTTGTTGGTGCCGGAGTCACCTAGTGCAG,3260 fluorescence intensity (a.u.)
12,ACTCGCCACTTCTCGGTTGTCACGCCTCTCTTTCGTACCGCGGAGTCACCTAGTGCAG,3540 fluorescence intensity (a.u.)
13,CAACAGTTAAACTGTCTGTTCCTGACAGGTCATCTCCTGACGGAGTCACCTAGTGCAG,6070 fluorescence intensity (a.u.)
14,GCCAGGCACGCGAAGTCGCCACGCGGAGACACACGCGGACCGGAGTCACCTAGTGCAG,5310 fluorescence intensity (a.u.)
15,GGAGGCGGCCGCGGCCGCGGCCGCCATGGCGAGCTGGGTGCGGAGTCACCTAGTGCAG,3400 fluorescence intensity (a.u.)
16,CCTTTCGTTGTGACACGACACGTTGATTATTGCGATCGAACGGAGTCACCTAGTGCAG,3740 fluorescence intensity (a.u.)
17,CTCACTGACGTAGGTTTATTGTACCTATTCTAATTAAGGCCGGAGTCACCTAGTGCAG,39400 fluorescence intensity (a.u.)
18,GGTCCATCCGCTGTTCCTGCTAGTCATATAGGTGACTCGGCGGAGTCACCTAGTGCAG,4150 fluorescence intensity (a.u.)
19,TTGACAATCTGAAGGCAACCTCTTCATATCTTCTTTCCAACGGAGTCACCTAGTGCAG,3590 fluorescence intensity (a.u.)
20,CGGCGGCTACGTGCTGACCCAGGAGGTGATGGACAGCATGCGGAGTCACCTAGTGCAG,3390 fluorescence intensity (a.u.)
21,ATGAACAGTAGTAGTGACGTTAGGCAGGAGAGGGTGAGGTCGGAGTCACCTAGTGCAG,3670 fluorescence intensity (a.u.)
